No constants are given. Whether binding was seen depends on the method and setting. In cells and extracts the contact can be indirect. Some entries that bind do so weakly or less than the wild type.
Target: T1, secreted phospholipase A2 human group IIA (hGIIA) (human) (UniProt P14555)
T1 sequence: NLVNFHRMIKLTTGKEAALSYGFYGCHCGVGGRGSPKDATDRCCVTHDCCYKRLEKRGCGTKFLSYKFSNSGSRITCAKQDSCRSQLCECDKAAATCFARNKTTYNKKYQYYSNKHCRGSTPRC
Test: co-IP; PC-3 cells incubated with hGIIA (2 µg/mL, 2 h), washed, lysed; lysate immunoprecipitated with anti-hGIIA antibody and protein G agarose beads overnight; EGFR detected by western blot; also with c2 pre-incubation (100 µM, 2 h); only the target purified

binding: binds
Substance: epidermal growth factor receptor (EGFR) (from UniProt P00533 25-1210)

Reference: paper PMC12876990, “Targeting secreted PLA2 interactions with EGFR and vimentin to arrest prostate tumour growth” (Cell Death & Disease, 2025)
